Reference: publication PMC7819943, “Rice protein-binding microarrays: a tool to detect cis-acting elements near promoter regions in rice”
The list shows a part of the results.

Biological target: T1, OsSMF1 (Oryza sativa, UniProt Q6ZLB0 1-436)
T1 sequence: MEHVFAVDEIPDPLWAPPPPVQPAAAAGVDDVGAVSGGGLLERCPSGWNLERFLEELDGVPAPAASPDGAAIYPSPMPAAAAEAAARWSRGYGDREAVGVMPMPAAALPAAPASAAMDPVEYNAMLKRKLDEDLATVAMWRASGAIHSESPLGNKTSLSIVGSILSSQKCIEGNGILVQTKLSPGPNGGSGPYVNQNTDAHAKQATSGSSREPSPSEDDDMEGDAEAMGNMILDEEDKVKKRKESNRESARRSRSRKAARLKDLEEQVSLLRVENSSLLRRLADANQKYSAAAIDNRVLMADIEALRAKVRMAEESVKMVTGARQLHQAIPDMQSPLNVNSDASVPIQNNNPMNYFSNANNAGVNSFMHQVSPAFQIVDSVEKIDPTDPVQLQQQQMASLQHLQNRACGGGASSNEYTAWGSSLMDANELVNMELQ
Assay: protein-binding microarray (RPBM); PBS, 2% BSA, 51.3 ng/ul salmon testes DNA, 50 uM zinc acetate, 200 nM TF, 25 C, 1 h; high values mean tight binding
Conditions: protein: recombinant; tags: N-terminal polyhistidine and DsRed monomer fusion (pET32a); chain copies: 2; label: CyDye5-dUTP incorporated in the synthesized complementary strand; 3' TTTTT single-stranded linker to array surface; dsDNA, one strand shown
Summary of the method: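 The binding signal for each feature is its fluorescence intensity in arbitrary units. An Axon 4000B scanner was used to read a custom Agilent array that had been made double-stranded with Cy5-dUTP primer extension, blocked with 2% BSA, incubated at 25 °C for 1 h with 200 nM protein in PBS, 2% BSA, salmon testes DNA and 50 µM zinc acetate, and washed. The protein was an N-terminal polyhistidine–DsRed transcription factor fusion from E. coli BL21-CodonPlus, purified on Ni–NTA.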

Row | Sequence | binding signal
1 | GCAATCCAATTGCATGATCCGGTGCACAATTTACTGACGACGGAGTCACCTAGTGCAG | 3160 fluorescence intensity (a.u.)
2 | ACCCGCGTGCGGCGCGGCGCGTCACCATCCACCGTTTATTCGGAGTCACCTAGTGCAG | 4180 fluorescence intensity (a.u.)
3 | GTCGTAGAGCGGCAGCGCGTGGCCCTGCGCCGGGAAGGGGCGGAGTCACCTAGTGCAG | 23800 fluorescence intensity (a.u.)
4 | TGGCTCCCACGTTAACTTAGCCGCCACGTCAGCTAAAACCCGGAGTCACCTAGTGCAG | 46600 fluorescence intensity (a.u.)
5 | CTCAACCATTACAAGTGTCATGTCCCTAGTGTTGTAGTGGCGGAGTCACCTAGTGCAG | 3650 fluorescence intensity (a.u.)
6 | TCCTGACGGGATGGGGCGAGGCGTGCGTCAGATCGCCTGTCGGAGTCACCTAGTGCAG | 5180 fluorescence intensity (a.u.)
7 | TGACTGACTGACCAGTGACCACAGCCCCGGTTAGCTGGCGCGGAGTCACCTAGTGCAG | 35800 fluorescence intensity (a.u.)
8 | TCAGTAAAGTCTCTTCTCTTGCTCATGCTAGCCCTGTCATCGGAGTCACCTAGTGCAG | 3930 fluorescence intensity (a.u.)
9 | TGTAGGCGTACACTTCACAGATTTGGCACCGGGGCTCCACCGGAGTCACCTAGTGCAG | 4730 fluorescence intensity (a.u.)
10 | ATGGAGCCCCTCTCGACACGTGCGTGCTAATGTTCGATTACGGAGTCACCTAGTGCAG | 4020 fluorescence intensity (a.u.)
11 | CCGGCGGCAAGCGGCACGGAGGCCGCCGCCGCCTCTGACGCGGAGTCACCTAGTGCAG | 3360 fluorescence intensity (a.u.)
12 | GCTATGTGTCTTGTGTGTCATTGTTACACATATGGAGATGCGGAGTCACCTAGTGCAG | 4540 fluorescence intensity (a.u.)
13 | AATTCCTGGTGTTAAGCTCTGTGTGGTGTGTGCTCCTATTCGGAGTCACCTAGTGCAG | 4390 fluorescence intensity (a.u.)
14 | GATCAGATCGCACGCTGAGACGTATAGACGACGTGGGTCCCGGAGTCACCTAGTGCAG | 4650 fluorescence intensity (a.u.)
15 | CTAAATGTTACATACGCGTTGGTGGGGCCGGGGCGGCAGTCGGAGTCACCTAGTGCAG | 3920 fluorescence intensity (a.u.)
16 | TAGGAGTAGTACTGACTCACTGCCTACCACTACTAGTCTCCGGAGTCACCTAGTGCAG | 6950 fluorescence intensity (a.u.)
17 | GTGGAGGGTGGGGTGACGTGGTTTCCGGGTTGGTGCAATGCGGAGTCACCTAGTGCAG | 34600 fluorescence intensity (a.u.)
18 | CTATCGCGAATAGGGGCTTCGTTGTAATTGGATATAGGCCCGGAGTCACCTAGTGCAG | 3320 fluorescence intensity (a.u.)
19 | TGCTTGTCAGACTCAGATAACTTCAATTAACTGTCTACGACGGAGTCACCTAGTGCAG | 4210 fluorescence intensity (a.u.)
20 | GGTGAGTGAGAGGGAGGTCGACGGGTGGCAAGCAATTTTCCGGAGTCACCTAGTGCAG | 14100 fluorescence intensity (a.u.)
21 | ACCTTCAGGGCAAGAGCTATAGCTAAGCTACTGTGTCACCCGGAGTCACCTAGTGCAG | 3360 fluorescence intensity (a.u.)

Row | Sequence | binding signal
22 | TCCTGCCAGACCGCCCGCGCCGTCATGTTATCGTCATTTTCGGAGTCACCTAGTGCAG | 3500 fluorescence intensity (a.u.)
23 | GCCGGATCGAACTCATCAGCATCAGCACATCTCTCTTCTCCGGAGTCACCTAGTGCAG | 3680 fluorescence intensity (a.u.)
24 | CAACGTACACCACTAGGTGTGCACGCATGCAGTTCCTTGACGGAGTCACCTAGTGCAG | 4330 fluorescence intensity (a.u.)
25 | CCGGCACGGCCCGAGGCGTGTTGGGCCGTGCCTGGGCCGTCGGAGTCACCTAGTGCAG | 3270 fluorescence intensity (a.u.)
26 | TTGCATCTTTCTCTTTCGCTTTGCCGTGTCAACGCGAACACGGAGTCACCTAGTGCAG | 4560 fluorescence intensity (a.u.)
27 | ATTGCAGTCCAACTCACCACTGACTGGAAACCAAATACTACGGAGTCACCTAGTGCAG | 5900 fluorescence intensity (a.u.)
28 | TAATACCTTCTGCGGTGCCATGTTCAGCAGCAACCTCATTCGGAGTCACCTAGTGCAG | 3310 fluorescence intensity (a.u.)
29 | CGCACGGCCGCTACATGCCCACGTCGTTCTCGCCTCGCTACGGAGTCACCTAGTGCAG | 3440 fluorescence intensity (a.u.)
30 | TTTGAATCAAAGGAATGGATCTTATGGAATCCTATAAAATCGGAGTCACCTAGTGCAG | 40400 fluorescence intensity (a.u.)
31 | TCCGAATTTGGGCGTGTCCTGGTCTCCTGGACACGGCAAACGGAGTCACCTAGTGCAG | 3290 fluorescence intensity (a.u.)
32 | AAAGAATGGGAATTACAAACTGGTGACAATGATATTATGCCGGAGTCACCTAGTGCAG | 3570 fluorescence intensity (a.u.)
33 | ATTGAGAGTGGTTTAGCGCCTACGTGGCAGTTTGACTTGGCGGAGTCACCTAGTGCAG | 19000 fluorescence intensity (a.u.)
34 | GCCAAGTCGACACGTGGCTCTCCTCCTCCGAATTCAGAAGCGGAGTCACCTAGTGCAG | 11300 fluorescence intensity (a.u.)
35 | AAGAACTAGCACCTATGAATCCTCGTAGGTGCGTGTGCCACGGAGTCACCTAGTGCAG | 4200 fluorescence intensity (a.u.)
36 | CAAACTCCAAGTCAATCCTGACGATCCAGACAGGCAGACACGGAGTCACCTAGTGCAG | 3300 fluorescence intensity (a.u.)
37 | GTATCCAGACCAGGAAAAGACAAAGGGCTGGTGATCTCCACGGAGTCACCTAGTGCAG | 16600 fluorescence intensity (a.u.)
38 | ACACGAGAAGATGTCAGCATCCGCTTCAATCTGCGTCGCACGGAGTCACCTAGTGCAG | 4150 fluorescence intensity (a.u.)
39 | GCTCTGACACACTTGACACTGCACGCGCGTGCGCGACAATCGGAGTCACCTAGTGCAG | 3510 fluorescence intensity (a.u.)
40 | CGTTATTGTTGCAGCAAACTGAAACGTGACGCTAATGTTGCGGAGTCACCTAGTGCAG | 4310 fluorescence intensity (a.u.)
41 | GAATGTATGAAGCTGTCACCAACCCGAAGCACCGGGTTTGCGGAGTCACCTAGTGCAG | 4290 fluorescence intensity (a.u.)
42 | GATAAATTTCTATGTCAGAGTATCCTTTTATCACTATATGCGGAGTCACCTAGTGCAG | 3340 fluorescence intensity (a.u.)

Three entries from above, field by field:
GTCGTAGAGCGGCAGCGCGTGGCCCTGCGCCGGGAAGGGGCGGAGTCACCTAGTGCAG
  binding signal: 23800 fluorescence intensity (a.u.)
GCCGGATCGAACTCATCAGCATCAGCACATCTCTCTTCTCCGGAGTCACCTAGTGCAG
  binding signal: 3680 fluorescence intensity (a.u.)
TTTGAATCAAAGGAATGGATCTTATGGAATCCTATAAAATCGGAGTCACCTAGTGCAG
  binding signal: 40400 fluorescence intensity (a.u.)
